## Screening data

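Wild-type E. coli carrying GFP, grown in the same well as an h34 humanized-ribosome RFP strain; GFP fluorescence for growth, read after 24 h.
The value is the change in activity at the highest dose tested; more negative means stronger inhibition.
Active requires GFP to fall at least twice as much as RFP with growth loss below a set limit; inconclusive means no clear call; everything else is inactive.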

Only part of the assay is shown, chiefly results filed as inconclusive.

| # | Compound | condition | activity change | filed as |
|---|---|---|---|---|
| 1 | `COc1cc(C#N)ccc1OCC(=O)Nc1cccc(S(=O)(=O)N2CCCC2)c1` | at 50 µM (top of the series) | -9.165 | inactive |
| 2 | `C#CC(C)(C)NC(=O)c1ccc(-c2ccccc2F)cc1` | at 50 µM (top of the series) | 5.189 | inconclusive |
| 3 | `C[C@@H]1CCCCO[C@H](CN(C)C)[C@H](C)CN([C@H](C)CO)C(=O)c2cc(NC(=O)Nc3cccc4ccccc34)ccc2O1` | at 50 µM (top of the series) | 1.883 | inactive |
| 4 | `Cc1cccc(-c2ccc([C@@H]3[C@H](CO)N4CCCCN(S(=O)(=O)c5cccc(C)c5)C[C@@H]34)cc2)c1` | at 50 µM (top of the series) | 22.02 | inconclusive |
| 5 | `CN1CCN(C(=O)c2cc3sc4ccccc4c3s2)CC1` | at 50 µM (top of the series) | -4.263 | inconclusive |
| 6 | `COc1ccc(OC)c(NC(=O)COC(=O)C2CCN(C(=O)c3ccc(Cl)cc3)CC2)c1` | at 50 µM (top of the series) | -13.59 | inconclusive |
| 7 | `NC(=O)c1cc(NC(=O)c2cc(Br)c(Br)s2)cc(C(N)=O)c1` | at 50 µM (top of the series) | 8.395 | inconclusive |
| 8 | `CC1(C)c2ccccc2C(=O)c2ccccc21` | at 50 µM (top of the series) | -36.89 | inconclusive |
| 9 | `Cc1cccc(-c2ccc([C@H]3[C@H](CO)N4CCCCN(S(=O)(=O)c5ccccc5C)C[C@@H]34)cc2)c1` | at 50 µM (top of the series) | -0.996 | inactive |
| 10 | `NCCNC(=O)c1c(NC(=O)c2ccccc2)sc2c1CCCC2` | at 50 µM (top of the series) | 12.76 | inconclusive |
| 11 | `Cc1cc(C)c(OCCN(C)Cc2ccccc2)c(Br)c1` | at 50 µM (top of the series) | 15.05 | inactive |
| 12 | `CC(C)CNC(=O)c1cccc(NC(=O)C(C)Oc2ccccc2)c1` (stereo not shown) | at 50 µM (top of the series) | -18.63 | inconclusive |
| 13 | `CN(C)CC(=O)N[C@@H]1CC[C@@H](CCNC(=O)Nc2ccc(Cl)cc2)O[C@H]1CO` | at 50 µM (top of the series) | -79.7 | inconclusive |
| 14 | `COc1ccc(-c2cn3cc(Cl)ccc3n2)cc1OC` | at 50 µM (top of the series) | -40.46 | inconclusive |
| 15 | `COc1ccc(NC(=O)Nc2cccc3c2O[C@H](CN(C)S(=O)(=O)c2ccc(Cl)cc2)[C@@H](C)CN([C@@H](C)CO)C3=O)cc1` | at 50 µM (top of the series) | 0.141 | inactive |
| 16 | `COc1ccc(-c2csc(C)n2)cc1Br` | at 50 µM (top of the series) | 7.591 | inconclusive |
| 17 | `COc1ccc(CN2CCC3CC2c2cc(Cl)ccc23)cc1` (stereo not shown) | at 50 µM (top of the series) | 8.955 | inconclusive |
| 18 | `COc1ccc(Cn2c(-c3ccc(Cl)cc3)c[n+]3ccccc23)cc1` | at 50 µM (top of the series) | 7.936 | inactive |
| 19 | `COc1cc2cc(C(=O)Nc3ccc4c(c3)OCCO4)[nH]c2cc1OC` | at 50 µM (top of the series) | -2.984 | inactive |
| 20 | `O=C(c1sc2ccccc2c1Cl)N1CCC2(CC1)OCCO2` | at 50 µM (top of the series) | 4.762 | inconclusive |
| 21 | `Cc1ccc(NC(=O)c2ccc([N+](=O)[O-])o2)cc1S(=O)(=O)N1CCOCC1` | at 50 µM (top of the series) | -14.65 | inconclusive |
| 22 | `CCOC(=O)C(C)(C)n1nnc(-c2ccc([N+](=O)[O-])cc2)n1` | at 50 µM (top of the series) | 23.7 | inconclusive |
| 23 | `Cc1ccc(S(=O)(=O)N2CCCCC2C(=O)N2CCN(c3ccccc3F)CC2)cc1` (stereo not shown) | at 50 µM (top of the series) | -9.539 | inactive |
| 24 | `CCCn1nnnc1NCc1ccccc1OCc1cccs1` | at 50 µM (top of the series) | -10.91 | inactive |
| 25 | `Cc1ccc(Cc2c(-c3cccc(Br)c3)nc3ccc(C)cn23)cc1` | at 50 µM (top of the series) | 12.88 | inconclusive |
| 26 | `COc1ccccc1NC(=O)COC(=O)Cc1c[nH]c2ccccc12` | at 50 µM (top of the series) | -0.586 | inconclusive |
| 27 | `N#Cc1ccc(-c2ccc(C3[C@H]4CNC[C@@H]3N4S(=O)(=O)c3ccc(-c4ccccc4)cc3)cc2)cc1` (stereo partly shown) | at 50 µM (top of the series) | 20.79 | inconclusive |
| 28 | `COc1ccc(C2CC(c3cccs3)=Nc3ccccc3S2)cc1` (stereo not shown) | at 50 µM (top of the series) | 17.74 | inconclusive |
| 29 | `COc1ccc(CN2C(=O)NC(C)(c3ccc(C)cc3)C2=O)cc1F` (stereo not shown) | at 50 µM (top of the series) | -32.69 | inconclusive |
| 30 | `Cc1nc2ccc(Br)cc2c(=O)n1-c1ccc([N+](=O)[O-])c(C(F)(F)F)c1` | at 50 µM (top of the series) | 27.12 | inconclusive |
| 31 | `CN(C)S(=O)(=O)c1ccc2oc(SCC(=O)NCC(F)(F)F)nc2c1` | at 50 µM (top of the series) | 53.88 | inconclusive |
| 32 | `Cc1noc(C)c1NC(=O)Nc1ccc2c(c1)C(=O)N([C@@H](C)CO)C[C@H](C)[C@@H](CN(C)C(=O)Nc1ccc3c(c1)OCO3)OCCCC[C@H](C)O2` | at 50 µM (top of the series) | 4.509 | inactive |
| 33 | `COc1ccc(NC(=O)Nc2cccc3c2O[C@H](CN(C)S(=O)(=O)c2ccc(Cl)cc2)[C@H](C)CN([C@H](C)CO)C3=O)cc1` | at 50 µM (top of the series) | -13.97 | inconclusive |
| 34 | `Cc1onc(-c2c(Cl)cccc2Cl)c1C(=O)Nc1ccc(Cl)cn1` | at 50 µM (top of the series) | 26.04 | inconclusive |
| 35 | `COc1ccccc1Cn1c(=S)[nH]c2ccccc2c1=O` | at 50 µM (top of the series) | 11.47 | inconclusive |
| 36 | `COc1ccc(CNS(=O)(=O)c2ccc3c(c2)NC(=O)C(C)S3)cc1` (stereo not shown) | at 50 µM (top of the series) | -14.19 | inconclusive |
| 37 | `Cc1ccccc1-c1nc(CS(=O)(=O)CC(=O)N2CCCCC2)c(C)o1` | at 50 µM (top of the series) | -1.485 | inconclusive |
| 38 | `COc1ccc2c(c1)c(C(C)=O)c(C)n2CCc1ccc(OC)c(OC)c1` | at 50 µM (top of the series) | -22.45 | inconclusive |
| 39 | `COc1ccc(C(=O)CSc2nc3ccccc3n2CC(=O)c2ccccc2)cc1` | at 50 µM (top of the series) | -2.434 | inactive |
| 40 | `O=[N+]([O-])c1ccc2nc(-c3ccccc3[N+](=O)[O-])[nH]c2c1` | at 50 µM (top of the series) | 18.18 | inconclusive |
| 41 | `COc1ccc(C(C)=O)cc1COc1ccc(Cl)c(C)c1` | at 50 µM (top of the series) | 2.127 | inconclusive |
| 42 | `O=C(c1ccccc1)C1CN(Cc2ccccc2)CCC1(O)c1ccccc1` (stereo not shown) | at 50 µM (top of the series) | 17.07 | inconclusive |
| 43 | `c1ccc2c(c1)CSc1ccccc1N2` | at 50 µM (top of the series) | 16.42 | inconclusive |

Once more, the final 3:

| Compound | condition | activity change | filed as |
|---|---|---|---|
| `COc1ccc(C(C)=O)cc1COc1ccc(Cl)c(C)c1` | at 50 µM (top of the series) | 2.127 | inconclusive |
| `O=C(c1ccccc1)C1CN(Cc2ccccc2)CCC1(O)c1ccccc1` (stereo not shown) | at 50 µM (top of the series) | 17.07 | inconclusive |
| `c1ccc2c(c1)CSc1ccccc1N2` | at 50 µM (top of the series) | 16.42 | inconclusive |

Data taken from PubChem BioAssay AID977624, deposited by Broad Institute (2014).